Reference: patent US20260015405A1
No constants are given. Whether binding was seen depends on the method and setting. Some results given as binding are weak or reduced against the parent protein; the word gives no strength. Sequences can lack the tags named with a protein.

By UniProt entry, the sequences of proteins in these tests, tags left out. Residues count along the entry.
UniProt P25942, residues 21-193: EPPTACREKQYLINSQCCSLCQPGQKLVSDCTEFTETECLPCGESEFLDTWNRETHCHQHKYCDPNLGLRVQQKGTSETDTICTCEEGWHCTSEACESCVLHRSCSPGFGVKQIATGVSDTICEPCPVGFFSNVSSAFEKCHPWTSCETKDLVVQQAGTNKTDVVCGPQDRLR

Target: CD40-Fc (immobilized recombinant human CD40) (human) (UniProt P25942)
Test: ELISA, CD40-Fc coated, HeLa supernatant, detection with non-competitive anti-CD40L

- binding: binds
B1: construct encoded by pTG19965: heterologous signal peptide upstream of human SPD (A21 to G257)-CD40L (N119 to L261), FLAG tag in C-terminus (ligand)
chain: AEMKTYSHRTMPSACTLVMCSSVESGLPGRDGRDGREGPRGEKGDPGLPGAAGQAGMPGQAGPVGPKGDNGSVGEPGPKGDTGPSGPPGPPGVPGPAGREGPLGKQGNIGPQGKPGPKGEAGPKGEVGAPGMQGSAGARGLAGPKGERGVPGERGVPGNTGAAGSAGAMGPQGSPGARGPPGLKGDKGIPGDKGAKGESGLPDVASLRQQVEALQGQVQHLQAAFSQYKKVENPQIAAHVISEASSKTTSVLQWAEKGYYTMSNNLVTLENGKQLTVKRQGLYYIYAQVTFCSNREASSQAPFIASLCLKSPGRFERILLRAANTHSSAKPCGQQSIHLGGVFELQPGASVFVNVTDPSQVSHGTGFTSFGLLKL
